Experiment [1] has as its target STAT3 (human (endogenous in NTera-2)) (UniProt P40763). The experiment in a line: co-IP; lysates of NTera-2 cells 21 days after differentiation (Oct-4 RNAi lentivirus) in NP40 lysis buffer (10 mM Tris pH 7.5, 150 mM NaCl, 0.5% NP40, 5 mM EDTA); precipitated with anti-STAT3, blotted with anti-p300.
The target is the same in experiment [2]. Kind of experiment: condition: only undifferentiated NTera-2 cells (not induced to differentiate); co-IP; lysates of undifferentiated NTera-2 cells in NP40 lysis buffer (10 mM Tris pH 7.5, 150 mM NaCl, 0.5% NP40, 5 mM EDTA); precipitated with anti-STAT3, blotted with anti-p300.

Chains of the proteins cited; added tags and fusions are not shown.
UniProt P40763: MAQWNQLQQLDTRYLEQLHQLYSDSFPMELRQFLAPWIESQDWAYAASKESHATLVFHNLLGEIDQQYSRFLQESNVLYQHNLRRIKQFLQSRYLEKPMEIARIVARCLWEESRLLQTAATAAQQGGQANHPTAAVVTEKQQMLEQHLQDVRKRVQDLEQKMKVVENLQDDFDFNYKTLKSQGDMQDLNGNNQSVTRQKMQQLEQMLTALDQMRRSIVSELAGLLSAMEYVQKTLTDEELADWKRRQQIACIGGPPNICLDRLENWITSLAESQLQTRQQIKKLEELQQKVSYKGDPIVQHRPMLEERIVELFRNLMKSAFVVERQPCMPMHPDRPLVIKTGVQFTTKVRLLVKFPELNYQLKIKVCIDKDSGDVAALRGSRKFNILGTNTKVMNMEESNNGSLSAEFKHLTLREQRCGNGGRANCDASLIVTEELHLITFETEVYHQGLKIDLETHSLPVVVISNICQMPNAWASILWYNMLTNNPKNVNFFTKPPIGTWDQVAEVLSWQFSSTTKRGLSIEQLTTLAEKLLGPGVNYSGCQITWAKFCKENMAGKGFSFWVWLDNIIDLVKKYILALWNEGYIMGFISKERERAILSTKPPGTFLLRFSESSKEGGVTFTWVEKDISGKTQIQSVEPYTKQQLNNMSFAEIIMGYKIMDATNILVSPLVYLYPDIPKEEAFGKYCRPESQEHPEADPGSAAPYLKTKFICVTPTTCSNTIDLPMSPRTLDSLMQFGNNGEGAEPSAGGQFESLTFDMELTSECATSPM
UniProt Q09472: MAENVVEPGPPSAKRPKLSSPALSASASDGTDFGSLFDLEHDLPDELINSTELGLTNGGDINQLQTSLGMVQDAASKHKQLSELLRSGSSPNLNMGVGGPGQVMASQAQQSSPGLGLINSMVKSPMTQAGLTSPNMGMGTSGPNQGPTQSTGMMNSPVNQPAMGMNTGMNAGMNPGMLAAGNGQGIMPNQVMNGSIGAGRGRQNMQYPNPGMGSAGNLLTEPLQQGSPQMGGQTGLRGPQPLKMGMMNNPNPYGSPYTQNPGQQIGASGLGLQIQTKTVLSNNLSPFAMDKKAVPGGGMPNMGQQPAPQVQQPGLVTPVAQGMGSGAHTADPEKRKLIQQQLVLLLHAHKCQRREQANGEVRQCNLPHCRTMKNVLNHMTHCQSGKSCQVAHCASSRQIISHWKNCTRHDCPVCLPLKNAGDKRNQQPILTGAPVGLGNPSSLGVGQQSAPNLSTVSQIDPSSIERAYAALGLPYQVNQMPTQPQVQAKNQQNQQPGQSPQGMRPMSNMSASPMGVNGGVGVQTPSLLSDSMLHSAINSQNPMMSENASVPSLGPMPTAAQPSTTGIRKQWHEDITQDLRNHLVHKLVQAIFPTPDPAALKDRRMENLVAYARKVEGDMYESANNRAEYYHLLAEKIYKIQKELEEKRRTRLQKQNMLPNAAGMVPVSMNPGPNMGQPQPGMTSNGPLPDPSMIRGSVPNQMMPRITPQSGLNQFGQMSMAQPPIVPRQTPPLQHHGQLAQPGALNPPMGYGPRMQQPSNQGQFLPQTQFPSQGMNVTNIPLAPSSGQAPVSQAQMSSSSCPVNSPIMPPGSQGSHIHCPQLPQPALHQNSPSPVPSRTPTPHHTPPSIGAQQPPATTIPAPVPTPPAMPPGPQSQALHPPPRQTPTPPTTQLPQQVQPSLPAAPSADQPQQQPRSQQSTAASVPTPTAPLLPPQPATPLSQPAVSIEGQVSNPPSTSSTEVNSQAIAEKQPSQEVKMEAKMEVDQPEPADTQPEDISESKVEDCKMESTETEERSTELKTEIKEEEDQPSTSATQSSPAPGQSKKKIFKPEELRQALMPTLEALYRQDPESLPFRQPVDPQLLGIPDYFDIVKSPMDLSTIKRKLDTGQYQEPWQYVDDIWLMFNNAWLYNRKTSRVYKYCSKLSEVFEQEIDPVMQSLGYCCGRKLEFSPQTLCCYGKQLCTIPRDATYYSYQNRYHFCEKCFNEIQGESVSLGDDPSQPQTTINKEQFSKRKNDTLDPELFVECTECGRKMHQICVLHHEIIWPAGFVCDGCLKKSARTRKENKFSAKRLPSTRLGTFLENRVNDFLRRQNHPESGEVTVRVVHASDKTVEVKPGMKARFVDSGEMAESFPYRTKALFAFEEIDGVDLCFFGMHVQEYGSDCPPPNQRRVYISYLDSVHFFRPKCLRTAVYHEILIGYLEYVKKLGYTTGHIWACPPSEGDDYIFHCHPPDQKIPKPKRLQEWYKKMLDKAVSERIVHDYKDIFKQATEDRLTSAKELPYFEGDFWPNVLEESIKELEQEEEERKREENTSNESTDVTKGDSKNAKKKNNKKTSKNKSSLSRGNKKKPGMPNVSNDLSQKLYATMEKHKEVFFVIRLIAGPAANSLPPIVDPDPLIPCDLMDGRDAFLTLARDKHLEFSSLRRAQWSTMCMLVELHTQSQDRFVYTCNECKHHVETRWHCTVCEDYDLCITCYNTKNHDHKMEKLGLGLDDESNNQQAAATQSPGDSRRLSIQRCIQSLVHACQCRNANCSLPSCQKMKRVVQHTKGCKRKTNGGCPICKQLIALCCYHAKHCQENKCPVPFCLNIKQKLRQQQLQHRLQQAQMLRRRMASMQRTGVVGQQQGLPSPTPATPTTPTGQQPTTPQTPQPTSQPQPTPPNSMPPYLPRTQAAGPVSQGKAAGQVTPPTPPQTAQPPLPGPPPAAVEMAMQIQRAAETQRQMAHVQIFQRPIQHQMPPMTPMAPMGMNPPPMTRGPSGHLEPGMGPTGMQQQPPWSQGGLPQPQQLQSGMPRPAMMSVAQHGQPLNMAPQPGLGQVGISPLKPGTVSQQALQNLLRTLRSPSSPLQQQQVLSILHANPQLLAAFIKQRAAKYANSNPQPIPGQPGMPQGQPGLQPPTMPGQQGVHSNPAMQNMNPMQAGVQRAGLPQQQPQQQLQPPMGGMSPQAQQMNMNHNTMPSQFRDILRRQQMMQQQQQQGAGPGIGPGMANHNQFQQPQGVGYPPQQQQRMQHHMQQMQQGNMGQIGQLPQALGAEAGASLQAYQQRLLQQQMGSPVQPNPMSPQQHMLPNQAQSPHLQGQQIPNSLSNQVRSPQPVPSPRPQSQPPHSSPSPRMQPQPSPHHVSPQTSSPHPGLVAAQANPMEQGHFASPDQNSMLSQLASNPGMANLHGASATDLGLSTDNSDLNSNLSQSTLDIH

These are yes or no findings as the source states them, for the method shown. Binding seen in cells or lysates may run through a third protein. Some results given as binding are weak or reduced against the parent protein; the word gives no strength.

Regarding p300 (from UniProt Q09472 1-2414), the binding entry is “binds” in experiment [1] and “no binding” in experiment [2].
